Results as given in US7196084B2, “Cdc25 phosphatase inhibitors” (Societe de Conseils de Recherches et d'Applications …, priority 2000, dated 2007).
Where a name gives a salt, the structure may show the parent alone. Some results were stated once for a whole list of compounds, not compound by compound.

Each molecule was assayed against T1, MBP-Cdc25C protein (Homo sapiens, UniProt P30307) (assay: Phosphatase activity of the purified Cdc25C recombinant enzyme (OMFP dephosphorylation, fluorescence)). Settings: OMFP 500 μM, 4 hours at 30° C., three independent experiments; read-out: IC50 on the phosphatase activity of the purified Cdc25-C recombinant enzyme.
T1 construct: made in house
T1 sequence (P30307 1-473): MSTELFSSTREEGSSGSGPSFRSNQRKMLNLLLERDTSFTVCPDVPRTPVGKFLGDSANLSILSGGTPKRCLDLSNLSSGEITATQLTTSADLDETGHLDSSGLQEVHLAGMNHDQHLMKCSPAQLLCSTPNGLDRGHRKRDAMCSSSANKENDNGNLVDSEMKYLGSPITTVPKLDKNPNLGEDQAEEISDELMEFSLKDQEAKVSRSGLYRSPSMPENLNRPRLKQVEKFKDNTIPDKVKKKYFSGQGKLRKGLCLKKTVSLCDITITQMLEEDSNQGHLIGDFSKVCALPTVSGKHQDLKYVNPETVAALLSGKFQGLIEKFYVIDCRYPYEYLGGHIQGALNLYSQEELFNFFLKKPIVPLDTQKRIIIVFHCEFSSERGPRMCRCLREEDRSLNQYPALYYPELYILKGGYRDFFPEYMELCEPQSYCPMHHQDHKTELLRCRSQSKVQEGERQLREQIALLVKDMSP
Format: biochemical
Work on `COc1cc(N(C)C)cc(CN(C)CCc2ccc([N+](=O)[O-])cc2)c1O` [Example 1, 4-(dimethylamino)-2-methoxy-6-({methyl[2-(4-nitrophenyl)ethyl]-amino}methyl)phenol] yielded an IC50 of no more than 100 µM.
`CN(CCc1ccc([N+](=O)[O-])cc1)Cc1cc(N(C)C)ccc1O` [Example 2, 4-(dimethylamino)-2-({methyl[2-(4-nitrophenyl)ethyl]amino}methyl)phenol] showed an IC50 of no more than 100 µM.
For `CN(C)c1ccc(NC(=O)CCNCc2cccc(N=C(N)c3cccs3)c2)cc1` [Example 4, 3-[(3-{[amino(2-thienyl)methylidene]amino}-benzyl)amino]-N-[4-(dimethylamino)phenyl]propanamide hydrochloride], the IC50 was no more than 100 µM.
`CN1CCN(c2ccc(NC(=O)CCCc3ccc(N)cc3)cc2)CC1.Cl` [Example 5, 4-(4-aminophenyl)-N-[4-(4-methyl-1-piperazinyl)phenyl]butanamide hydrochloride] showed an IC50 of no more than 100 µM.
`CN(C)c1ccc(O)c(CNCCc2ccc([N+](=O)[O-])cc2)c1` [Example 7, 4-(dimethylamino)-2-({[2-(4-nitrophenyl)ethyl]amino}methyl)phenol] was tested, and the IC50 was no more than 100 µM.
`COc1cc(CN(C)CCc2ccc([N+](=O)[O-])cc2)cc(N(C)C)c1O` [Example 8, 2-(dimethylamino)-6-methoxy-4-({methyl[2-(4-nitrophenyl)ethyl]amino}methyl)phenol] gave an IC50 of no more than 100 µM.
`CN(CCc1ccc([N+](=O)[O-])cc1)Cc1cc(O)ccc1O` [Example 9, 2-({methyl [2-(4-nitrophenyl)ethyl]amino}methyl)-1,4-benzenediol] showed an IC50 of no more than 100 µM.
`COc1cc(N(C)C)cc(CN(C)CCc2ccc([N+](=O)[O-])cc2)c1OC(C)=O` [Example 10, 4-(dimethylamino)-2-methoxy-6-({methyl[2-(4-nitrophenyl)ethyl]amino}methyl)phenyl acetate] was tested, and the IC50 was no more than 100 µM.
`O=C(NCCc1ccc([N+](=O)[O-])cc1)c1cc2cc(O)ccc2cc1O` [Example 11, 3,7-dihydroxy-N-[2-(4-nitrophenyl)ethyl]-2-naphthamide] was tested, and the IC50 was no more than 100 µM.
With `NS(=O)(=O)c1ccc(CCNC(=O)c2cc3cc(O)ccc3cc2O)cc1` [Example 14, N-{2-[4-(aminosulphonyl)phenyl]ethyl}-3,7-dihydroxy-2-naphthamide] the IC50 was no more than 100 µM.
`Nc1ccc(CCNC(=O)c2cc3cc(O)ccc3cc2O)cc1` [Example 15, 3,7-dihydroxy-N-[2-(4-aminophenyl)ethyl]-2-naphthamide] showed an IC50 of no more than 100 µM.
For `CS(=O)(=O)Nc1ccc(CCNC(=O)c2cc3cc(O)ccc3cc2O)cc1` [Example 16, 3,7-dihydroxy-N-(2-{4-[(methylsulphonyl)amino]phenyl}ethyl)-2-naphthamide], the IC50 was no more than 100 µM.
Molecule `CCCCS(=O)(=O)Nc1ccc(CCNC(=O)c2cc3cc(O)ccc3cc2O)cc1` [Example 17, N-(2-{4-[(butylsulphonyl)amino]phenyl}ethyl)-3,7-dihydroxy-2-naphthamide] has an IC50 of no more than 100 µM.
`Cc1ccc(S(=O)(=O)Nc2ccc(CCNC(=O)c3cc4cc(O)ccc4cc3O)cc2)cc1` [Example 18, 3,7-dihydroxy-N-[2-(4-{[(4-methylphenyl)sulphonyl]amino}phenyl)ethyl]-2-naphthamide] was tested, and the IC50 was no more than 100 µM.
In the case of `Cn1cnc(S(=O)(=O)Nc2ccc(CCNC(=O)c3cc4cc(O)ccc4cc3O)cc2)c1` [Example 27, 3,7-dihydroxy-N-[2-(4-{[(1-methyl-1H-imidazol-4-yl)sulphonyl]amino}phenyl)ethyl]-2-naphthamide], the IC50 is reported as no more than 100 µM.
With `O=C(NCCc1ccc(NS(=O)(=O)c2ccc(F)cc2)cc1)c1cc2cc(O)ccc2cc1O` [Example 28, N-[2-(4-{[(4-fluorophenyl)sulphonyl]amino}phenyl)ethyl]-3,7-dihydroxy-2-naphthamide] the IC50 was no more than 100 µM.
With `CC1CCN(S(=O)(=O)c2cccc(CNC(=O)c3cc4cc(O)ccc4cc3O)c2)CC1` [Example 29, 3,7-dihydroxy-N-{3-[(4-methyl-1-piperidinyl)sulphonyl]benzyl}-2-naphthamide] the IC50 was no more than 100 µM.
For `CN(C)c1ccccc1NC(=O)CCCCc1ccc(/N=C(/N)c2cccs2)cc1.Cl` [Example 30, 5-(4-{[(1E)-amino(2-thienyl)methylidene]amino}phenyl)-N-[2-(dimethylamino)phenyl]pentanamide hydrochloride], the IC50 was no more than 100 µM.
In the case of `Cc1ccc(S(=O)(=O)N2CCN(C(=O)c3cc4cc(O)ccc4cc3O)CC2)cc1` [Example 31, 3-({4-[(4-methylphenyl)sulphonyl]piperazin-1-yl}carbonyl) naphthalene-2,6-diol], the IC50 is reported as no more than 100 µM.
`CS(=O)(=O)N1CCN(C(=O)c2cc3cc(O)ccc3cc2O)CC1` [Example 32, 3-{[4-(methylsulphonyl)piperazin-1-yl]carbonyl}naphthalene-2,6-diol] showed an IC50 of no more than 100 µM.
`CCCCS(=O)(=O)N1CCN(C(=O)c2cc3cc(O)ccc3cc2O)CC1` [Example 33, 3-{[4-(butylsulphonyl)piperazin-1-yl]carbonyl}naphthalene-2,6-diol] was tested, and the IC50 was no more than 100 µM.
